# Test results as given in PubChem BioAssay (NCATS).
# The inconclusive results got no clear call from the source; some entries with a clear call stand among them for comparison. Potencies of inconclusive entries are doubtful fits and often do not repeat. Activity calls are given as the source filed them. The call rests on the fitted dose curve; in most records, active means well fitted cell-killing curve with a large enough effect; inconclusive means small, poorly fitted or top-dose-only effect, or effect the other way; inactive means no such curve, though single readings can be large or run the other way.
# What was measured:
# [1] = Quantitative High-Throughput drug screen in 47 multiple myeloma cell lines against the NCATS MIPE library collection: EJM_DSMZ cell viability assay (AID 1918926; further: nearly all actives have a fitted effect of over 30% in size); conditions: EJM myeloma cell viability, CellTiter-Glo ATP, 48 h; viability, % of control: at 45.8 µM (top of the series)
# How it was run: (§1)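 Viability readout: CellTiter-Glo luminescence following 5 min room-temperature incubation with reagent. Prior exposure: 48 h, 37C, humidified 5% CO2, 500 cells per well.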
# [2] = Quantitative High-Throughput drug screen in 47 multiple myeloma cell lines against the NCATS MIPE library collection: AMO1_DSMZ cell viability assay (AID 1918927; further: nearly all actives have a fitted effect of over 30% in size); conditions: AMO1 myeloma cells viability, CellTiter-Glo ATP luminescence, 48 h; viability, % of DMSO: at 45.8 µM (top of the series)
# How it was run: as §1
# [3] = Quantitative High-Throughput drug screen in 47 multiple myeloma cell lines against the NCATS MIPE library collection: Karpas620_DSMZ cell viability assay (AID 1918959); conditions: Karpas620 myeloma viability, CellTiter-Glo ATP luminescence, 48 h; viability (% of DMSO): at 45.8 µM (top of the series); further: nearly all actives have a fitted effect of over 30% in size
# How it was run: (§2)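 Relative luminescence from CellTiter-Glo served as the viability signal, referenced to DMSO-treated (100%) and cell-free medium (0%) controls. Treatment lasted 48 hours at 37C with 500 cells per well.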
# [4] = Quantitative High-Throughput drug screen in 47 multiple myeloma cell lines against the NCATS MIPE library collection: Karpas417_ECACC cell viability assay (AID 1918961); conditions: Karpas417 myeloma viability, CellTiter-Glo ATP luminescence, 48 h; viability (% of DMSO): at 45.8 µM (top of the series)
# How it was run: as §2
# [5] = Quantitative High-Throughput drug screen in 47 multiple myeloma cell lines against the NCATS MIPE library collection: Delta47_JCRB cell viability assay (AID 1918925; further: nearly all actives have a fitted effect of over 45% in size); conditions: Delta47 myeloma viability, CellTiter-Glo ATP, 48 h; viability (% of DMSO): at 45.8 µM (top of the series)
# How it was run: as §1
# [6] = Quantitative High-Throughput drug screen in 47 multiple myeloma cell lines against the NCATS MIPE library collection: KMM1_JCRB cell viability assay (AID 1918960); conditions: KMM1 myeloma viability, CellTiter-Glo ATP luminescence, 48 h; viability (% of DMSO): at 45.8 µM (top of the series); further: nearly all actives have a fitted effect of over 30% in size
# How it was run: (§3)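 CellTiter-Glo luminescence after 48 h exposure gives viability, scaled between DMSO-only (100%) and media-only (0%) controls. Library compounds are pinned onto 500 myeloma cells per well, incubated at 37C with 5% CO2.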
# [7] = Quantitative High-Throughput drug screen in 47 multiple myeloma cell lines against the NCATS MIPE library collection: ARD_JJKsccE7 cell viability assay (AID 1918929); conditions: ARD myeloma cell line viability, CellTiter-Glo, 48 h; viability: at 45.8 µM (top of the series)
# How it was run: as §1
# [8] = Quantitative High-Throughput drug screen in 47 multiple myeloma cell lines against the NCATS MIPE library collection: ARP1_JJKsccF8 cell viability assay (AID 1918928; further: nearly all actives have a fitted effect of over 40% in size); conditions: ARP1 myeloma cells viability, CellTiter-Glo ATP, 48 h; viability: at 45.8 µM (top of the series)
# How it was run: as §3
# Potency means the concentration at half of the fitted maximal effect.
structure (smiles),measurement,setting,value
Cc1cc(NS(=O)(=O)c2ccc(N)cc2)no1,Potency,[1],inactive
same,Potency,[2],inactive
same,Potency,[3],inactive
same,Potency,[4],"inconclusive: 8.3 nM [rising, full curve, poor fit]"
O=C1CCC[C@@H]2[C@H]3CCC[N+]4([O-])CCC[C@@H](CN12)[C@@H]34 (stereo partly specified),Potency,[5],inactive
same,Potency,[3],inactive
same,Potency,[6],"inconclusive: 37200 nM [cytotoxic, single point]"
same,Potency,[4],"inconclusive: 1.7 nM [cytotoxic, full curve, poor fit]"
CCN1CCN(c2ccc(Nc3cc(N(C)C(=O)Nc4c(Cl)c(OC)cc(OC)c4Cl)ncn3)cc2)CC1,Potency,[1],"inconclusive: 14800 nM [cytotoxic, partial curve, poor fit]"
same,Potency,[2],inactive
same,Potency,[7],inconclusive: 1 nM
same,Potency,[6],inactive
same,Potency,[4],"inconclusive: 5260 nM [rising, partial curve, poor fit]"
CC(C)(C)C(=O)Oc1ccc(S(=O)(=O)Nc2ccccc2C(=O)NCC(=O)O)cc1,Potency,[1],"inconclusive: 4.2 nM [cytotoxic, full curve, poor fit]"
same,Potency,[2],inactive
same,Potency,[8],inactive
same,Potency,[3],inactive
same,Potency,[6],"inconclusive: 148 nM [rising, full curve, poor fit]"
same,Potency,[4],"inconclusive: 7430 nM [rising, partial curve, poor fit]"
FC(F)c1nc2ccccc2n1-c1nc(N2CCOCC2)nc(N2CCOCC2)n1,Potency,[5],active: 66.2 nM
same,Potency,[7],"inconclusive: 33.2 nM [cytotoxic, full curve, poor fit]"
same,Potency,[6],"inconclusive: 74.3 nM [cytotoxic, full curve]"
CC(C)(C)[C@H](NC(=O)c1ccc(N)c(Cl)c1)C(=O)N1CCC[C@@H]1C(=O)N[C@H](C#N)CC(=O)O,"viability, % of control",[1],inactive: 97.8% [at 3.51 µM]
same,Potency,[2],"inconclusive: 1180 nM [cytotoxic, partial curve, poor fit]"
same,Potency,[7],"inconclusive: 83.4 nM [cytotoxic, full curve, poor fit]"
same,Potency,[4],"inconclusive: 296 nM [cytotoxic, partial curve, poor fit]"
CN(C)c1nc(N(C)C)nc(N(C)C)n1,Potency,[1],inactive
same,Potency,[8],"inconclusive: 5260 nM [cytotoxic, partial curve, poor fit]"
same,Potency,[7],inactive
same,Potency,[3],"inconclusive: 37.2 nM [cytotoxic, full curve, poor fit]"
same,Potency,[6],inactive
same,Potency,[4],inactive
c1ccc([C@H]2CN3CCSC3=N2)cc1,Potency,[5],"inconclusive: 11800 nM [cytotoxic, single point]"
same,Potency,[4],"inconclusive: 935 nM [rising, full curve, poor fit]"
COC1=C2C[C@@H](C)C[C@H](OC)[C@@H](O)[C@@H](C)C=C(C)[C@H](OC(N)=O)[C@@H](OC)C=CC=C(C)C(=O)NC(=CC1=O)C2=O,Potency,[1],active: 372 nM
same,Potency,[8],active: 118 nM
same,Potency,[7],"inconclusive: 11800 nM [cytotoxic, single point]"
same,Potency,[3],"inconclusive: 10500 nM [cytotoxic, single point]"
same,Potency,[6],"inconclusive: 11800 nM [cytotoxic, single point]"
same,Potency,[4],"inconclusive: 3720 nM [cytotoxic, partial curve, poor fit]"
Cn1cnc2c(F)c(Nc3ccc(Br)cc3F)c(C(=O)NOCCO)cc21,Potency,[5],inactive
same,Potency,[7],active: 3.3 nM
same,Potency,[6],"inconclusive: 372 nM [cytotoxic, partial curve]"
C[C@@H](N)c1ccc(C(=O)Nc2ccnc3[nH]ccc23)cc1,Potency,[1],active: 23500 nM
same,Potency,[8],"inconclusive: 20900 nM [cytotoxic, partial curve]"
same,Potency,[7],active: 26400 nM
same,Potency,[3],"inconclusive: 33200 nM [cytotoxic, single point]"
same,Potency,[6],"inconclusive: 33200 nM [cytotoxic, single point]"
same,Potency,[4],"inconclusive: 10500 nM [cytotoxic, partial curve, poor fit]"
NC(=O)Nc1cc(-c2cccc(F)c2)sc1C(=O)N[C@H]1CCCNC1,Potency,[5],active: 105 nM
same,Potency,[4],active: 83.3 nM
CCc1c(O)cc(O)c(C(=O)c2ccc(OCCN3CCOCC3)c(OC)c2)c1CC(=O)N(CCOC)CCOC,Potency,[1],"inconclusive: 935 nM [cytotoxic, full curve]"
same,Potency,[2],inactive
same,Potency,[7],"inconclusive: 148 nM [cytotoxic, full curve, poor fit]"
same,Potency,[3],"inconclusive: 418 nM [cytotoxic, full curve, poor fit]"
same,Potency,[4],inactive
CN(CC(=O)N(Cc1ccc(C2CCCCC2)cc1)c1ccc(C(=O)O)c(O)c1)S(=O)(=O)c1c(F)c(F)c(F)c(F)c1F,Potency,[5],active: 5900 nM
same,Potency,[4],"inconclusive: 10500 nM [cytotoxic, full curve, poor fit]"
O=c1c(O)c(-c2ccc(O)cc2O)oc2cc(O)cc(O)c12,Potency,[1],inactive
same,Potency,[2],"inconclusive: 2.6 nM [cytotoxic, full curve, poor fit]"
same,Potency,[4],inactive
